Test results: PubChem BioAssay AID2685 (National Center for Advancing Translational Sciences (NCATS), 2010)
Some of the results follow. These are further read-outs of the screen, such as a control signal, another cell line or another target. No call is given for them. Most of these compounds were active or inconclusive in the main read-out, so they are no random draw. Potencies come from curve fits of mixed quality, noted in brackets.

Test: qHTS Assay for Lipid Storage Modulators in Drosophila S3 Cells;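 as to cell number change: cells counted by Cell Tracker Red CMTPX staining in the red channel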
Conditions: BODIPY lipid droplet fluorescence, 18-24 h; for cell number change: measured here: cell count max response, cells fed with added oleic acid
How it was run: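 Drosophila S3 cells loaded with oleic acid (400 uM, as added) and compounds at several concentrations; lipid droplets imaged by 488-nm laser-scanning cytometry, 500–530 nm intensity and object ratio to cell channel. Percent activity normalized to 20 uM Triacsin C.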

[1] = measured here: lipid fluorescence (Fed channel) AC50, cells fed with added oleic acid
[2] = measured here: cell number channel AC50, cells fed with added oleic acid

| SMILES | cell number change [%] | AC50 [1] | AC50 [2] |
| --- | --- | --- | --- |
| CN1C(=O)c2cccc(NC(=O)Cc3ccccc3)c2C1=O | 8.59 |  |  |
| O=P(O)(C(O)c1ccccc1)C(O)c1ccccc1 (stereo unspecified) | 26.6 | 0.517 µM [falling, single point] |  |
| Cc1cc(C)cc(OC(C)C(=O)NCCCn2ccnc2)c1 (stereo unspecified) | -2.63 |  |  |
| CCOc1ccc(NC(=S)NC23CC4CC(CC(C4)C2)C3)cc1 | -5.61 | 29.1 µM [rising, single point] |  |
| CCc1ccc(N(CC(=O)NC2CCCC2)S(=O)(=O)c2c(C)noc2C)cc1 | 18.9 | 29.1 µM [rising, single point] |  |
| O=C(CCCSc1nc2ccccc2[nH]1)NCc1ccccc1 | -13.9 | 7.31 µM [falling, partial curve, poor fit] |  |
| Cn1c(SCc2ccc(Br)cc2)nc2c(c1=O)SCC2 | 10.6 |  |  |
| CCCOc1ccc(/C(CC)=N/NC(=O)C2(C)CC2(Br)Br)cc1 (stereo unspecified) | 5.02 | 0.206 µM [rising, full curve, poor fit] |  |
| CCC(=NC(CC)CO)C1=C(O)CC(C)(C)CC1=O (stereo unspecified) | -6.98 |  |  |
| Cc1cc(NC(=O)COC(=O)C2CC(=O)N(c3ccc(C)c(Cl)c3)C2)no1 (stereo unspecified) | 2.99 |  |  |
| CN(C(=O)COC(=O)C1=COCCO1)C1(C#N)CCCCC1 | 35 | 25.9 µM [rising, single point] |  |
| COc1cccc(Oc2ccc(N/C=C/C(=O)C(C)(C)C)cc2)c1 | 37.9 |  | 13 µM [rising, partial curve, poor fit] |
| CCN(CC)CCN(Cc1cc2cc3c(cc2[nH]c1=O)OCO3)C(=S)NCCCN(C)C | 16.6 | 0.0517 µM [rising, full curve, poor fit] |  |
| Cc1cccc2cc(CN(Cc3ccco3)C(c3nnnn3CCc3ccccc3)C(C)C)c(=O)[nH]c12 (stereo unspecified) | -31.4 | 7.31 µM [falling, partial curve] |  |
| Cc1c(NC=C(C#N)C#N)c(=O)n(-c2ccccc2)n1C | -38.7 | 16.4 µM [falling, single point] | 10.3 µM [falling, partial curve, poor fit] |
| Cn1cnnc1SCC(=O)NC1CCCN(Cc2ccc(Cl)cc2)C1 (stereo unspecified) | 50.9 |  |  |
| Cc1cc(=O)n2nc(N3CCCC(C(=O)N4CCN(c5ccccc5)CC4)C3)sc2n1 (stereo unspecified) |  |  | 1.16 µM [falling, single point] |
| Cc1ccc(C)c2c1cc(C)c1nnc(SCC(=O)Nc3nc4c(s3)CCCC4)n12 | -4.55 | 6.51 µM [falling, single point] |  |
| O=C(NCc1ccc(F)cc1)c1cc(C(=O)C2CC2)c[nH]1 | -16.7 | 0.116 µM [rising, full curve, poor fit] |  |
| O=C(CCCN=C1NS(=O)(=O)c2ccccc21)OCc1ccccc1 |  | 6.51 µM [falling, partial curve, poor fit] | 6.51 µM [falling, partial curve, poor fit] |
| CCC(C)C(=O)N1c2ccccc2C(=C2SC(C(=O)OC)=C(C(=O)OC)S2)C(=S)C1(C)C (stereo unspecified) | -157 | 7.31 µM [falling, partial curve] | 7.31 µM [falling, partial curve] |

| SMILES | cell number change [%] | AC50 [1] | AC50 [2] |
| --- | --- | --- | --- |
| CC1(C)CC(=O)C(C=NC2CCCCC2)=C(O)C1 | -60.7 | 0.146 µM [falling, full curve] | 0.0184 µM [falling, full curve] |
| COc1cc(NC(=O)Nc2cccc([N+](=O)[O-])c2)cc(OC)c1 | -43.6 | 35.5 µM [falling, single point] | 35.5 µM [falling, single point] |
| Cc1cc(C(=O)CN2CC(C)OC(C)C2)c(C)n1-c1ccccc1 (stereo unspecified) | 24.8 | 32.6 µM [rising, single point] |  |
| CCCCn1c(N)c(N(CCOC)C(=O)CSCc2ccc(Cl)c(Cl)c2)c(=O)[nH]c1=O | 29.6 | 1.84 µM [rising, partial curve] |  |
| COc1ccc(NC(=O)CSc2nnc(-c3ccccc3C)n2N)cc1 | 72.1 | 13 µM [rising, partial curve] | 29.1 µM [rising, single point] |
| Cc1ccccc1C(=O)N=c1ccn(-c2nc3ccccc3nc2NS(=O)(=O)c2ccccc2)cc1 | 19.8 |  |  |
| Cc1ccc2nc(C3CCN(C(=O)NCc4ccccc4)CC3)[nH]c2c1 | 1.94 |  |  |
| O=C1[C@H]2[C@@H](c3ccc(Cl)cc3)N3C(=O)N(c4cccc(F)c4)C(=O)[C@@]3(Cc3ccc(Cl)cc3)[C@H]2C(=O)N1C1CCCCC1 | 73.5 | 18.4 µM [falling, single point] | 29.1 µM [rising, single point] |
| Cc1ccn2c(=O)nc(SCC(=O)NCc3ccccc3Cl)nc2c1 | 20.5 | 0.116 µM [rising, full curve, poor fit] |  |
| c1cnc(Sc2ccc3nnnn3n2)nc1 | 31.1 |  | 7.31 µM [falling, partial curve, poor fit] |
| Cc1cc(C)n(CCSCC(=O)O)n1 | -19.3 | 6.51 µM [falling, single point] | 0.092 µM [falling, full curve, poor fit] |
| COc1ccc(C)cc1NC(=O)c1cc2ccccc2o1 | -1.74 | 2.59 µM [rising, partial curve] |  |
| O=C(c1cc(=O)[nH]c2ccccc12)N1CCN(c2cccc(C(F)(F)F)c2)CC1 | 29.4 |  |  |
| CCCc1cc(=O)n2[nH]c(NCc3ccc(OC)cc3)nc2n1 | 34.8 |  | 0.291 µM [rising, full curve, poor fit] |
| Cc1ccc(C(=O)NCCNC(=O)c2cnccn2)cc1 | -9.21 |  |  |
| Cc1cccc(C)c1NC(=O)CN(C)C(=O)C1CC1C (stereo unspecified) | 28.3 | 14.6 µM [rising, partial curve] |  |
| O=C(COC(=O)CCC1CCCC1)Nc1ccc(F)cc1 | -31.7 | 2.31 µM [rising, partial curve, poor fit] | 23.1 µM [falling, single point] |
| O=C(O)c1nnn(-c2cc(C(F)(F)F)cc(C(F)(F)F)c2)c1-c1ccccc1 | -53.2 | 29.1 µM [falling, single point] | 29.1 µM [falling, single point] |
| Nc1nnc(SCc2ccc(F)cc2Cl)s1 | 5.06 | 16.4 µM [rising, partial curve] |  |
| O=C(CN1CCN(c2ccccc2)CC1)NC(=O)NCc1ccccc1 | -2.45 |  |  |
| CN(C)CCCOC(=O)COc1ccc(C(C)(C)C)cc1 | -19.4 | 29.1 µM [falling, partial curve, poor fit] |  |

Looked up by structure from the list above (2):

| SMILES | cell number change [%] | AC50 [1] | AC50 [2] |
| --- | --- | --- | --- |
| Cc1ccccc1C(=O)N=c1ccn(-c2nc3ccccc3nc2NS(=O)(=O)c2ccccc2)cc1 | 19.8 |  |  |
| Cc1ccc2nc(C3CCN(C(=O)NCc4ccccc4)CC3)[nH]c2c1 | 1.94 |  |  |

Later entries

| SMILES | cell number change [%] | AC50 [1] | AC50 [2] |
| --- | --- | --- | --- |
| CCOc1cc(S(=O)(=O)NCc2ccco2)c(OCC)cc1-n1cnnn1 | -0.372 | 2.31 µM [rising, single point] |  |
| COc1nc(C)ccc1-c1noc(-c2ccco2)n1 |  |  | 2.31 µM [rising, partial curve] |
| COC(=O)c1ccc(NC(=O)CN2CCN(CC#N)CC2)cc1 | 75.4 |  | 29.1 µM [rising, single point] |
| CC(OC(=O)c1cccc(-n2cnnn2)c1)C(=O)NC1(C#N)CCCCC1 (stereo unspecified) | 19.5 | 8.2 µM [rising, partial curve, poor fit] |  |
| CN(C)CCCNC(=O)c1cc2sc3ccccc3c2s1 | 10.1 | 14.6 µM [rising, partial curve, poor fit] |  |
| Cc1ccn(C(=O)c2ccc(NC(=O)C3CC3)cc2)n1 | -0.249 | 29.1 µM [rising, single point] |  |
| CCCNC(=O)c1ccc(-c2nc3ccccc3s2)s1 | 35.5 | 3.66 µM [rising, partial curve] | 0.164 µM [rising, full curve, poor fit] |
| O=C(O)c1nccnc1C(=O)Nc1ccc(Cl)cn1 |  | 0.00461 µM [rising, full curve, poor fit] |  |
| Cc1cc(NC(=O)NCC(F)(F)F)no1 | -9.07 |  | 6.51 µM [falling, single point] |
| Cc1ccc(CSCC(=O)N(C)CC(=O)Nc2cccc(F)c2)cc1 | 90.4 |  |  |
| O=C(O)c1ccc(N2C(=O)C3C4c5ccccc5C(Br)(c5ccccc54)C3C2=O)cc1 (stereo unspecified) | -9.65 | 0.164 µM [falling, full curve, poor fit] |  |
| Cc1cc(C)nc(/N=C2\NC(=O)CC(C(=O)O)N2c2ccc(C)c(C)c2)n1 (stereo unspecified) | -54.2 |  | 23.1 µM [falling, single point] |
| COc1ccc(OC)c(N(CC(=O)NCCc2ccc(OC)c(OC)c2)S(=O)(=O)c2ccccc2)c1 | 2.56 |  |  |
| COc1cc(CN2CCC(C(=O)NC3CCCC3)CC2)cc(OC)c1O | -9.08 | 7.31 µM [falling, partial curve, poor fit] |  |
| C[N+](C)(C)CCOP(=O)([O-])OC[C@H](O)CO | 1.8 | 1.3 µM [falling, full curve] |  |
| COCC(C)n1c(SCC(=O)N(C)C2CCS(=O)(=O)C2)nc2ccccc2c1=O (stereo unspecified) |  | 0.058 µM [rising, partial curve, poor fit] | 0.058 µM [rising, partial curve, poor fit] |
| Cc1ccc(C(O)c2nc3ccccc3n2C(C)C)cc1 (stereo unspecified) | -14.3 | 9.2 µM [rising, partial curve] |  |
| CC(=O)Nc1cccc(C(=O)OCC(=O)NC2CCCCCCC2)c1 | -17.8 | 20.6 µM [rising, single point] |  |
| COc1ccc(CNC(=O)c2ccc(CS(=O)c3ccccc3)o2)cc1 (stereo unspecified) | -17.1 | 29.1 µM [rising, partial curve] |  |
